Measurements taken from patent US20230165979A1, “COPPER-CONTAINING THERAGNOSTIC COMPOSITIONS AND METHODS OF USE” (Cornell University, priority 2020, published 2023).

Test: Dosimetry: absorbed dose estimated with OLINDA from mouse biodistribution data
Assay type: in vivo, human
Conditions: for Absorbed Dose / Effective Dose: OLINDA, adult human male
[1] = Target Organ: Urinary Bladder Wall

CC12CNCCNCC(NC(=O)CCCC(=O)NCCCC[C@H](NC(=O)CCOCCOCCOCCn3cc(-c4cccc(NC(=O)NCCCC[C@H](NC(=O)N[C@@H](CCC(=O)O)C(=O)O)C(=O)O)c4)nn3)C(=O)N[C@@H](CCCCNC(=O)Cc3ccc(I)cc3)C(=O)O)(CNCCNC1)CNCCNC2.[67Cu+2] [[^67Cu]Cu-RPS-085]
Absorbed Dose (Target Organ: Adrenals): 7.0 mSv/MBq | Effective Dose (Target Organ: Adrenals): 18.8 mrem/mCi | Absorbed Dose (Target Organ: Brain): 0.0 mSv/MBq | Effective Dose (Target Organ: Brain): 0.0111 mrem/mCi | Absorbed Dose (Target Organ: Breasts): 0.3 mSv/MBq | Effective Dose (Target Organ: Breasts): 0.732 mrem/mCi | Absorbed Dose (Target Organ: Gallbladder Wall): 4.6 mSv/MBq | Effective Dose (Target Organ: Gallbladder Wall): 12.3 mrem/mCi | Absorbed Dose (Target Organ: Heart Wall): 4.6 mSv/MBq | Effective Dose (Target Organ: Heart Wall): 12.3 mrem/mCi | Effective Dose (Target Organ: Kidneys): 2390 mrem/mCi | Absorbed Dose (Target Organ: Kidneys, over 192 h): 884 mSv/MBq and 884.3 mSv/MBq | Absorbed Dose (Target Organ: LLI Wall): 64.8 mSv/MBq | Effective Dose (Target Organ: LLI Wall): 175 mrem/mCi | Absorbed Dose (Target Organ: Liver): 12.9 mSv/MBq | Effective Dose (Target Organ: Liver): 34.9 mrem/mCi | Absorbed Dose (Target Organ: Lungs): 2.6 mSv/MBq | Effective Dose (Target Organ: Lungs): 7.02 mrem/mCi | Absorbed Dose (Target Organ: Muscle): 3.0 mSv/MBq | Effective Dose (Target Organ: Muscle): 8.15 mrem/mCi | Absorbed Dose (Target Organ: Osteogenic Cells): 3.4 mSv/MBq | Effective Dose (Target Organ: Osteogenic Cells): 9.22 mrem/mCi | Absorbed Dose (Target Organ: Ovaries): 1.6 mSv/MBq | Effective Dose (Target Organ: Ovaries): 4.45 mrem/mCi | Absorbed Dose (Target Organ: Pancreas): 8.4 mSv/MBq | Effective Dose (Target Organ: Pancreas): 22.7 mrem/mCi | Absorbed Dose (Target Organ: Red Marrow): 2.4 mSv/MBq | Effective Dose (Target Organ: Red Marrow): 6.45 mrem/mCi | Absorbed Dose (Target Organ: Skin): 2.5 mSv/MBq | Effective Dose (Target Organ: Skin): 6.68 mrem/mCi | Absorbed Dose (Target Organ: Small Intestine): 3.3 mSv/MBq | Effective Dose (Target Organ: Small Intestine): 8.97 mrem/mCi | Absorbed Dose (Target Organ: Spleen): 11.6 mSv/MBq | Effective Dose (Target Organ: Spleen): 31.4 mrem/mCi | Absorbed Dose (Target Organ: Stomach Wall): 2.7 mSv/MBq | Effective Dose (Target Organ: Stomach Wall): 7.3 mrem/mCi | Absorbed Dose (Target Organ: Thymus): 0.3 mSv/MBq | Effective Dose (Target Organ: Thymus): 0.757 mrem/mCi | Absorbed Dose (Target Organ: Thyroid): 0.1 mSv/MBq | Effective Dose (Target Organ: Thyroid): 0.138 mrem/mCi | Absorbed Dose (Target Organ: Total Body (whole body)): 14.5 mSv/MBq | Effective Dose (Target Organ: Total Body): 39.2 mrem/mCi | Effective Dose (Target Organ: Tumor): 38700 mrem/mCi | Absorbed Dose (Target Organ: Tumor, over 192 h): 14319 mSv/MBq and 14319.0 mSv/MBq | Absorbed Dose (Target Organ: ULI Wall): 22.1 mSv/MBq | Effective Dose (Target Organ: ULI Wall): 59.7 mrem/mCi | Absorbed Dose [1]: 8.0 mSv/MBq | Effective Dose [1]: 21.7 mrem/mCi | Absorbed Dose (Target Organ: Uterus): 1.0 mSv/MBq | Effective Dose (Target Organ: Uterus): 2.8 mrem/mCi | reduction in whole body absorbed dose relative to [177Lu]Lu-RPS-063 (in vivo): 5 fold | absorbed dose in any other tissue (not tumor, kidneys) (over 192 h): ≤ 65 mSv/MBq

Several values for one entry are separate records, joined by “and”; a condition that tells them apart may be missing. Equal entries are not always repeated. The amount applied is not stated for every result.
